These are yes or no findings as the source states them, for the method shown. In cells and extracts the contact can be indirect. Some results given as binding are weak or reduced against the parent protein; the word gives no strength.

Sequences of proteins named here, by UniProt entry; tags and fusion partners are left off.
UniProt Q96L96: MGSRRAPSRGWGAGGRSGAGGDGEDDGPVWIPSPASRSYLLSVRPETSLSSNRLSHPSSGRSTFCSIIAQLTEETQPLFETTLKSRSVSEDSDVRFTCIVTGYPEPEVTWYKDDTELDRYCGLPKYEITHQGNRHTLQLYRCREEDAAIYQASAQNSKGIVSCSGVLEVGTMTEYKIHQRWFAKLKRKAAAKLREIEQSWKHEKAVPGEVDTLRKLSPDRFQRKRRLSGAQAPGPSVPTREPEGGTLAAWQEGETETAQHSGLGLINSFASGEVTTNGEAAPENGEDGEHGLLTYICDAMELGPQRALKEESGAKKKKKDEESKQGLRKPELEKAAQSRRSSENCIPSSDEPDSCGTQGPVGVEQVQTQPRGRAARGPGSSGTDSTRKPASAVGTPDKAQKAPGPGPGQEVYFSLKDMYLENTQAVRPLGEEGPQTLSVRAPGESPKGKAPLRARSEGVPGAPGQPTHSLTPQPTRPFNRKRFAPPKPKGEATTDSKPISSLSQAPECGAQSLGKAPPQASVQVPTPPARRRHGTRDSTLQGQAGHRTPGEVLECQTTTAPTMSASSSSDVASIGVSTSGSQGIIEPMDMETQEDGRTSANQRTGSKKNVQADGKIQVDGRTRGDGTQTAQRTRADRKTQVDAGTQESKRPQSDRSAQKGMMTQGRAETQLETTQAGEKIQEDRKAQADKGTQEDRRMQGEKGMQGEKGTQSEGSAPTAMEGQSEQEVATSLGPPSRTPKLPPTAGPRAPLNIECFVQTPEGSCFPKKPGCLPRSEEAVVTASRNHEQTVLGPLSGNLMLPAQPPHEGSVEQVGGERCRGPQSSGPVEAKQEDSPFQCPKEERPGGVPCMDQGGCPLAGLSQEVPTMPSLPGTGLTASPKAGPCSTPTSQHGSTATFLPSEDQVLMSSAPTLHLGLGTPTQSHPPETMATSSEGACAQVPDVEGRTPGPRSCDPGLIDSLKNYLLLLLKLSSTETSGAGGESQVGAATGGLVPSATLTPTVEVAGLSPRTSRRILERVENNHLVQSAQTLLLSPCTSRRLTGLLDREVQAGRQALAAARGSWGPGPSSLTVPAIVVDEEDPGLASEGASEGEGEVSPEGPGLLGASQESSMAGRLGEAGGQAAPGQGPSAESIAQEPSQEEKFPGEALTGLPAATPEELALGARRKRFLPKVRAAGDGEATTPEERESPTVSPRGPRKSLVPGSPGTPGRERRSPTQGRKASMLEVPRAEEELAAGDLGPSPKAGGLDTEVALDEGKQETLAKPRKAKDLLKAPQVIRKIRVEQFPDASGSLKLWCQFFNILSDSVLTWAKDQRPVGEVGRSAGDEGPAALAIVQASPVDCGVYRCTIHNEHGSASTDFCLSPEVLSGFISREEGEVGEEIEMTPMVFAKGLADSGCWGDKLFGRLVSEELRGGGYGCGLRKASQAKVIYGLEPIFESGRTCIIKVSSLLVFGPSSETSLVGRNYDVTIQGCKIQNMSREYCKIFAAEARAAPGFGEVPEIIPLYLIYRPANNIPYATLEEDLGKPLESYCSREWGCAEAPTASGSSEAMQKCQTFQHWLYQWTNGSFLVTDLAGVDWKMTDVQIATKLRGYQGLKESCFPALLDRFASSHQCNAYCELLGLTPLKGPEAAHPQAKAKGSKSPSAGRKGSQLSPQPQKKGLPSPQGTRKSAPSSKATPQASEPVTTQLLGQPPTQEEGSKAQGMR

In the test the target is sequestosome-1 (SQSTM1), endogenous (human (endogenous in hPSC-derived cardiomyocytes)) (UniProt Q13501). The test can be described thus: co-IP; reverse co-IP: 2 mg lysate of metabolically purified ALPK3–SBP3×FLAG hPSC CMs immunoprecipitated 3 h at 4 °C with anti-SQSTM1 antibody, Protein G Dynabeads; western blot with anti-FLAG M2 or anti-SQSTM1.

“ALPK3–SBP3×FLAG (endogenous alpha kinase 3 with a C-terminal streptavidin-binding peptide 3×FLAG tag) (from UniProt Q96L96 1-1705)”: the binding result is “binds”.

The values above are taken from article PMC11358020.
